Measurements taken from paper PMC12886529.
No constants are given. Whether binding was seen depends on the method and setting. Binding can be weak; no strength is given.

By UniProt entry, the sequences of proteins in these tests, tags left out. Where a name states a change or a piece, a line headed by the entry shows the natural chain unless it says otherwise.
UniProt Q14CN2: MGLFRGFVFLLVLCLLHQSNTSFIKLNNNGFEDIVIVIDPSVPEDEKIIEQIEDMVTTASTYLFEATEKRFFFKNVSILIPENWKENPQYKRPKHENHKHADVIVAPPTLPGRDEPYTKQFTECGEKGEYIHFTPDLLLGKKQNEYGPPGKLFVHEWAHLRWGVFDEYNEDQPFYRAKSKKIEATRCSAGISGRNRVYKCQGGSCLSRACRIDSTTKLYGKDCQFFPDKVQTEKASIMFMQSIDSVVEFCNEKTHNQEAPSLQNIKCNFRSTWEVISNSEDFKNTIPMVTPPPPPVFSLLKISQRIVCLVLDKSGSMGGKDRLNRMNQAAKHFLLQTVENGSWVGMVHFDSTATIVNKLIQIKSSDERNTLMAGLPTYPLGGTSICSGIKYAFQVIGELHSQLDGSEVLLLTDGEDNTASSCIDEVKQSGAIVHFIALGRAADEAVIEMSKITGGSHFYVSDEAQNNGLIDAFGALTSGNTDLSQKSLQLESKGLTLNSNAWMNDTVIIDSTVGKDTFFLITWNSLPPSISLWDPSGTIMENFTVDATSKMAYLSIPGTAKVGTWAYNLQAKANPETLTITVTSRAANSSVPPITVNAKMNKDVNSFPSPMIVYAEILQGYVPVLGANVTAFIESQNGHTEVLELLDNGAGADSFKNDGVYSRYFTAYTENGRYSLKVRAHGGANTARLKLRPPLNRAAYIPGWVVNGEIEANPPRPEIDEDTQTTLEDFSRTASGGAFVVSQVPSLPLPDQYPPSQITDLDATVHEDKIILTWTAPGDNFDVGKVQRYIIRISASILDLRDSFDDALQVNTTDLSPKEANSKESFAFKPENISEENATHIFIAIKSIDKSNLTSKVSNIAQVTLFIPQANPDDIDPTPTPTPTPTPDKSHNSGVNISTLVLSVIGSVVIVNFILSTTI
UniProt P08670: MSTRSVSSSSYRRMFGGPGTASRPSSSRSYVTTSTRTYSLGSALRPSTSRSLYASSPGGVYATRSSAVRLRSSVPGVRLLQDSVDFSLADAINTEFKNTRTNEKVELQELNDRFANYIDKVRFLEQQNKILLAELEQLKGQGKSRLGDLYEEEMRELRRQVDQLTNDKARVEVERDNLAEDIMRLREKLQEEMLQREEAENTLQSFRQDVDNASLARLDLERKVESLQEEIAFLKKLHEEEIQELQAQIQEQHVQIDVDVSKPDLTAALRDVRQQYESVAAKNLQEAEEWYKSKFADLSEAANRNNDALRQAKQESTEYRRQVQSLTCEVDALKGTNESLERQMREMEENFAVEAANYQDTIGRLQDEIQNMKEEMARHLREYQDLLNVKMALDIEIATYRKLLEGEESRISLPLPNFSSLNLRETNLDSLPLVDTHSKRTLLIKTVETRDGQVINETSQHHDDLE

Target: GST-CLCA4 fusion protein (UniProt Q14CN2)
Test: pull-down; purified GST-CLCA4 or GST control combined with His-Vimentin, overnight at 4 °C, washed; Western blotting; both purified

binding: binds
Substance: His-Vimentin (from UniProt P08670 1-466)
